Experimental data from the supplement of paper PMC10032668.
The list shows a part of the results. Only hits are listed; about a third recur on repeated control peptides.

Chains of the proteins cited; added tags and fusions are not shown.
HIST1H1D, P16402, UniProt P16402, whole entry: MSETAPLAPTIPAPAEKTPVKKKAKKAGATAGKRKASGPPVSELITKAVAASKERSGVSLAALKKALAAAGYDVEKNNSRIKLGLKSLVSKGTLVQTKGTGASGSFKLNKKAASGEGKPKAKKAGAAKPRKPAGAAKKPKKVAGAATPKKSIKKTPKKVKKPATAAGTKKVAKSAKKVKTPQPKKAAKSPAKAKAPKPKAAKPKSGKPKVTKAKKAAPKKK
MORF4L2, Q15014, UniProt Q15014, whole entry: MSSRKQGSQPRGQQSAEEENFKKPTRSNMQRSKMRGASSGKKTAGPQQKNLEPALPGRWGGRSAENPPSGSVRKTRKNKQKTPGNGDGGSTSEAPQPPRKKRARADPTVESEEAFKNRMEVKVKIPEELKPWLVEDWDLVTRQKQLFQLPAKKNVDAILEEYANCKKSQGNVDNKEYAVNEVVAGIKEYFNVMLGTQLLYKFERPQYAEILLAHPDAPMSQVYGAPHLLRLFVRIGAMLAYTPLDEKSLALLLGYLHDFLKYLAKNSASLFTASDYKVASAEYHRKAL

Tests used:
Experiment in all cases: PRISMA enrichment of interactor (LFQ) in peptide spot vs all other peptide spots (log2 fold change); higher = stronger / more specific binding of the interactor to the peptide
ALYREF, Q86V81 = target: ALYREF, Q86V81
Method: (§1)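 PRISMA: 15-aa overlapping tiles (offset 8 aa) of 60 microproteins, plus SOS1/GLUT1 control peptides, were spot-synthesized on cellulose membranes in triplicate. Membranes were incubated with benzonase-treated HEK293T lysate, and bound proteins were identified by LC-MS/MS with LFQ. Enrichment is the log2 fold change of each protein in one spot versus all other spots. Only interactors passing the significance cutoff are listed.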

ANXA6, P08133 = target: ANXA6, P08133
Method: as §1

C11orf98, E9PRG8 = target: C11orf98, E9PRG8
Method: as §1

C19orf53, Q9UNZ5 = target: C19orf53, Q9UNZ5
Method: as §1

CHTOP, Q9Y3Y2 = target: CHTOP, Q9Y3Y2
Method: as §1

CIRBP, Q14011 = target: CIRBP, Q14011
Method: as §1

CLTA, P09496 = target: CLTA, P09496
Method: as §1

CLTB, P09497 = target: CLTB, P09497
Method: as §1

CLTC, Q00610 = target: CLTC, Q00610
Method: as §1

CLTCL1, P53675 = target: CLTCL1, P53675
Method: as §1

CRIPT, Q9P021 = target: CRIPT, Q9P021
Method: as §1

CSNK1A1, P48729 = target: CSNK1A1, P48729
Method: as §1

CSRP2, Q16527 = target: CSRP2, Q16527
Method: as §1

CXorf56, Q9H5V9 = target: CXorf56, Q9H5V9
Method: as §1

DECR1, Q16698 = target: DECR1, Q16698
Method: as §1

DUSP3, P51452 = target: DUSP3, P51452
Method: as §1

EDF1, O60869 = target: EDF1, O60869
Method: as §1

EMG1, Q92979 = target: EMG1, Q92979
Method: as §1

FAM98B, Q52LJ0 = target: FAM98B, Q52LJ0
Method: as §1

FBXO5, Q9UKT4 = target: FBXO5, Q9UKT4
Method: as §1

FOCAD, Q5VW36 = target: FOCAD, Q5VW36
Method: as §1

FUS, P35637 = target: FUS, P35637
Method: as §1

HIST1H1D, P16402 = target: HIST1H1D, P16402
Method: as §1

HMGA1, P17096 = target: HMGA1, P17096
Method: as §1

HMGN1, P05114 = target: HMGN1, P05114
Method: as §1

HMGN2, P05204 = target: HMGN2, P05204
Method: as §1

HSPA9, P38646 = target: HSPA9, P38646
Method: as §1

LYZ, P61626 = target: LYZ, P61626
Method: as §1

MAZ, P56270 = target: MAZ, P56270
Method: as §1

MORF4L2, Q15014 = target: MORF4L2, Q15014
Method: as §1

NDUFB10, O96000 = target: NDUFB10, O96000
Method: as §1

NDUFS5, O43920 = target: NDUFS5, O43920
Method: as §1

NOL12, Q9UGY1 = target: NOL12, Q9UGY1
Method: as §1

NOL7, Q9UMY1 = target: NOL7, Q9UMY1
Method: as §1

[1] = substrate: NOSIP, Q9Y314
Method: as §1

NSFL1C, Q9UNZ2 = target: NSFL1C, Q9UNZ2
Method: as §1

PCLAF, Q15004 = target: PCLAF, Q15004
Method: as §1

PSMC4, P43686 = target: PSMC4, P43686
Method: as §1

RBIS, Q8N0T1 = target: RBIS, Q8N0T1
Method: as §1

RBMX, P38159 = target: RBMX, P38159
Method: as §1

RIOK1, Q9BRS2 = target: RIOK1, Q9BRS2
Method: as §1

SERF1B, O75920 = target: SERF1B, O75920
Method: as §1

SERF2, P84101 = target: SERF2, P84101
Method: as §1

SSNA1, O43805 = target: SSNA1, O43805
Method: as §1

ZNF593, O00488 = target: ZNF593, O00488
Method: as §1

hCG_2014768 = target: hCG_2014768
Method: as §1

TCHCEQLLLLDDPGH [LINC01128]
PRISMA enrichment of interactor (log2) (ALYREF, Q86V81): 5.91 | PRISMA enrichment of interactor (log2) (ANXA6, P08133): 6.29 | PRISMA enrichment of interactor (log2) (C11orf98, E9PRG8): 5.45 | PRISMA enrichment of interactor (log2) (C19orf53, Q9UNZ5): 7.82 | PRISMA enrichment of interactor (log2) (CHTOP, Q9Y3Y2): 5.7 | PRISMA enrichment of interactor (log2) (CIRBP, Q14011): 5.8 | PRISMA enrichment of interactor (log2) (CLTA, P09496): 6.86 | PRISMA enrichment of interactor (log2) (CLTB, P09497): 6.47 | PRISMA enrichment of interactor (log2) (CLTC, Q00610): 5.16 | PRISMA enrichment of interactor (log2) (CLTCL1, P53675): 4.02 | PRISMA enrichment of interactor (log2) (CRIPT, Q9P021): 4.61 | PRISMA enrichment of interactor (log2) (CSNK1A1, P48729): 5.32 | PRISMA enrichment of interactor (log2) (CSRP2, Q16527): 4.52 | PRISMA enrichment of interactor (log2) (CXorf56, Q9H5V9): 5.75 | PRISMA enrichment of interactor (log2) (DECR1, Q16698): 5.99 | PRISMA enrichment of interactor (log2) (DUSP3, P51452): 5.2 | PRISMA enrichment of interactor (log2) (EDF1, O60869): 5.54 | PRISMA enrichment of interactor (log2) (EMG1, Q92979): 5.91 | PRISMA enrichment of interactor (log2) (FAM98B, Q52LJ0): 7.96 | PRISMA enrichment of interactor (log2) (FBXO5, Q9UKT4): 4.65 | PRISMA enrichment of interactor (log2) (FOCAD, Q5VW36): 4.07 | PRISMA enrichment of interactor (log2) (FUS, P35637): 5.16 | PRISMA enrichment of interactor (log2) (HIST1H1D, P16402): 5.03 | PRISMA enrichment of interactor (log2) (HMGA1, P17096): 5.25 | PRISMA enrichment of interactor (log2) (HMGN1, P05114): 6.88 | PRISMA enrichment of interactor (log2) (HMGN2, P05204): 5.9 | PRISMA enrichment of interactor (log2) (HSPA9, P38646): 4.22 | PRISMA enrichment of interactor (log2) (LYZ, P61626): 3.8 | PRISMA enrichment of interactor (log2) (MAZ, P56270): 4.91 | PRISMA enrichment of interactor (log2) (MORF4L2, Q15014): 6.22 | PRISMA enrichment of interactor (log2) (NDUFB10, O96000): 5.68 | PRISMA enrichment of interactor (log2) (NDUFS5, O43920): 5.16 | PRISMA enrichment of interactor (log2) (NOL12, Q9UGY1): 4.52 | PRISMA enrichment of interactor (log2) (NOL7, Q9UMY1): 4.9 | PRISMA enrichment of interactor (log2) [1]: 4.29 | PRISMA enrichment of interactor (log2) (NSFL1C, Q9UNZ2): 7.89 | PRISMA enrichment of interactor (log2) (PCLAF, Q15004): 5.1 | PRISMA enrichment of interactor (log2) (PSMC4, P43686): 7.56 | PRISMA enrichment of interactor (log2) (RBIS, Q8N0T1): 4.64 | PRISMA enrichment of interactor (log2) (RBMX, P38159): 4.82 | PRISMA enrichment of interactor (log2) (RIOK1, Q9BRS2): 5.17 | PRISMA enrichment of interactor (log2) (SERF1B, O75920): 3.73 | PRISMA enrichment of interactor (log2) (SERF2, P84101): 7.91 | PRISMA enrichment of interactor (log2) (SSNA1, O43805): 4.23 | PRISMA enrichment of interactor (log2) (ZNF593, O00488): 4.07 | PRISMA enrichment of interactor (log2) (hCG_2014768): 5.83
